{"source": "patent US20210115406A1", "about": "“HOST-BIOME INTERACTIONS” (EMULATE, INC., priority 2018, published 2021)", "key": {"MB5919 (WT)": {"tested_on": "MB5919 (WT)", "assay": "Imipenem treatment of P. aeruginosa infection on Airway chip, CFU quantification", "format": "cell-based, Pseudomonas aeruginosa", "details": "Imipenem 50, 100 and 500 μg/ml for 24 hours"}, "P. aeruginosa": {"tested_on": "P. aeruginosa", "assay": "Imipenem treatment of P. aeruginosa infection on Airway chip, strain not specified", "format": "cell-based, Pseudomonas aeruginosa"}}, "note": "For at least one compound, name, drawing or mass did not settle the structure.", "data": [{"smiles": "C[C@@H](O)[C@H]1C(=O)N2C(C(=O)O)=C(SCCN=CN)C[C@H]12", "note": "[Imipenem]", "values": [{"measurement": "bactericidal effect on growth (CFU counts)", "setting": "MB5919 (WT)", "result": "significant bactericidal effect"}, {"measurement": "total bacterial counts (intra- and/or extracellular bacteria)", "setting": "P. aeruginosa; cell lysates, 24 h post treatment", "result": "reduction in total bacterial counts"}, {"measurement": "killing of extracellular bacteria", "setting": "P. aeruginosa; determined by plating out apical supernatants", "result": "kills most of the extracellular bacteria"}, {"measurement": "persistence of P. aeruginosa in small airway cells", "setting": "P. aeruginosa; treated with 50 μg/ml imipenem", "result": "can persist in small airway cells over time"}]}]}
